{
  "source": "patent US11364239B2",
  "about": "(priority 2020, dated 2022)",
  "system": "Aflatoxin B1-exposed rats",
  "conditions": "rat, in vivo",
  "note": "For at least one compound, name, drawing or mass did not settle the structure.",
  "data": [
    {"smiles": "CN1CC(=O)N2[C@H](c3ccc4c(c3)OCO4)c3[nH]c4ccccc4c3C[C@@H]2C1=O", "note": "[Tadalafil]", "values": [
      {"measurement": "liver hydroxyproline levels (a measure of liver fibrosis)", "result": "trend of lower liver hydroxyproline levels"},
      {"measurement": "beneficial effects on growth", "setting": "po", "result": "did not show the beneficial effects"}
    ]}
  ]
}
